# Assay results: PubChem BioAssay AID493014 (National Center for Advancing Translational Sciences (NCATS), 2011)
# Out of some 340,000 compounds screened, about 170 (0.05%) were called active. Inconclusive results, whose numbers are uncertain, are shown with a selection of clear calls. Calls follow the shape of the dose curve; as a rule, active = well fitted inhibition curve with a large enough effect in the signal ratio, with a control signal flat (not every such curve was filed as active); inconclusive = small, poorly fitted or top-dose-only effect, or effect the other way, or a change in a side signal; inactive = flat fitted curve, though single readings scatter; the % refers to the signal ratio. Potencies of inconclusive entries are doubtful fits and often do not repeat.
# Assay: qHTS Assay to Find Inhibitors of Chronic Active B-Cell Receptor Signaling;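 as to activity change, negative = inhibition: plate controls were basal doxycycline-induced cells for no effect and cells given 10 µM MG132 for full effect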
# Settings: ABC-DLBCL IkBa-CBG/CBR reporter, luminescence ratio (green luciferase fused to IkBa over red control in TMD8 lymphoma cells), 4 h; activity change, negative = inhibition: at 46.1 µM (top of the series)
# How it was run: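 Concentration-response series (up to 46 uM) were applied to TMD8 dual-reporter cells for 4 h at 37C with doxycycline. Green/red ratio, after filter-overlap correction, defined %Activity; red signal alone was normalised to basal cells and zero luminescence.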
# Potency is read from the fitted curve at half-maximal effect.
SMILES,"activity change, negative = inhibition",Potency
CN1CCN(CCCNC(=O)c2ccc(Cn3c(=S)[nH]c4ccc(Br)cc4c3=O)cc2)CC1,inconclusive: -7.34%,–
Cc1ccc(C(=O)O/N=C2\CCSc3ccc(C)cc32)cc1,inconclusive: 9.33%,–
COc1cccc(CNc2ccc(F)c([N+](=O)[O-])c2)c1O,inactive: -7.2%,–
COc1ccccc1N1CCN(C(=O)c2sc3nc(-c4ccccc4)cn3c2C)CC1,inconclusive: -66.3%,–
CCCSc1cc(N)cc([N+](=O)[O-])c1,inconclusive: 0.0228%,–
O=C(CSc1nc(=O)n(CCN2CCOCC2)c2c1CCC2)Nc1ccc(OC(F)(F)F)cc1,inconclusive: -14.6%,–
CCCOc1cc(N(CC)CC)ccc1/C=C(/C#N)c1nc2ccc(C)cc2[nH]1,inactive: 12.8%,–
Cc1ccccc1C(=O)Nc1ccccc1C(=O)NCC(C)C,inconclusive: 17%,–
Cc1ccc2nc(NC(=O)CCNS(=O)(=O)c3cccs3)sc2c1,inconclusive: -0.109%,–
CCN1CCN(c2cc(C)c3cc(NC(=S)N(C)Cc4ccccc4)ccc3n2)CC1,inconclusive: -4.45%,–
CC(=O)Nc1ccc(OCC=C(Cl)Cl)cc1,inconclusive: 7.37%,–
COc1ccc(N2C(=O)C(F)(F)C2c2ccccc2F)cc1 (configuration not stated),–,"inconclusive: 35.5 µM [falling, single point]"
CCCC(=O)NC(NC(=S)Nc1ccc(N=Nc2ccccc2)cc1)C(Cl)(Cl)Cl (configuration not stated),inactive: -3.03%,–
CCOc1ccc(N/C(SC)=C(/C#N)C(N)=O)cc1,–,"inconclusive: 20 µM [falling, single point]"
CS(=O)(=O)N1CCN(C(=O)C2c3ccccc3Oc3ccccc32)CC1,inactive: 8.53%,–
COc1ccc(-c2cc(-c3ccccc3O)[nH]n2)cc1OC,–,"inconclusive: 35.5 µM [rising, single point]"
CCCCNC(=S)N1CCN(c2nc3ccccc3s2)CC1,inactive: 18.9%,–
Cc1cc(C)cc(Cn2ncc(Cl)c(Cl)c2=O)c1,inconclusive: 10.3%,–
Cc1cc2c(s1)c(C#N)c(C(=O)NCc1ccccc1F)n2C,–,"inconclusive: 11.6 µM [rising, partial curve, poor fit]"
Cc1cc(C)n2nc(-c3sccc3-n3cccc3)cc2n1,inactive: -0.471%,–
CC(C)Oc1ccc(C(CCNCc2ccc(O)cc2)c2ccccc2)cc1 (configuration not stated),–,"inconclusive: 35.5 µM [falling, single point]"

SMILES,"activity change, negative = inhibition",Potency
COc1ccccc1OCCSc1nnc(C)n1-c1ccccc1,inconclusive: -2.65%,–
CCN1C(=NCC(C)C)N[C@@H](c2ccccc2)[C@H](C(=O)OC)[C@H]1C,inconclusive: 6.27%,–
O=C(N/N=C/c1ccc(O)cc1)c1csc2c1CCCC2,–,"inconclusive: 13 µM [falling, partial curve]"
Cc1nc2cc(C(=O)NCCC3=CCCCC3)ccc2n1-c1ccc(Br)cc1,inconclusive: -191%,–
Cc1ccc(/C=C2\SC(=S)N(CC3CCCO3)C2=O)o1 (configuration not stated),inconclusive: 12.7%,–
Cc1cccc(Nc2nc(-c3ccc(O)cc3O)cs2)n1,inconclusive: -8.2%,–
O=C(CSCC(=O)Nc1nccs1)Nc1ccccc1,inconclusive: -2.09%,–
Cc1ccc(C(C(=O)NC2CCCC2)N(Cc2ccco2)C(=O)CCC(=O)Nc2ccccn2)cc1 (configuration not stated),inconclusive: -2.06%,–
Cc1ccc(C(=O)CCS(=O)(=O)c2ccc(F)cc2)cc1,inconclusive: -26.3%,–
CCC(=O)NC(c1ccco1)c1cc(Br)c2cccnc2c1O (configuration not stated),–,"inconclusive: 29.1 µM [falling, single point]"
CN(C)c1ccc(C(=O)C(=O)c2ccccc2)cc1,inconclusive: -1.25%,–
Cc1cccc2c1OCC/C2=N\NC(=O)COc1ccccc1,–,"inconclusive: 1.78 µM [rising, full curve, poor fit]"
O=C(CCc1ccccc1)Nc1ccc(S(=O)(=O)NC2=NCCCCC2)cc1,inactive: -4.55%,–
Fc1cccc(-c2cc3nc4c(c(N5CCC6(CC5)OCCO6)n3n2)CCCC4)c1,inconclusive: -16.9%,–
COc1ccc(-c2n[nH]c(=S)n2Cc2ccccc2)cc1OC,inconclusive: 2.17%,–
CCOc1ccc(NCc2cccn2-c2nnc(N3CCC(C(=O)NCCCN4CCCCC4CC)CC3)s2)cc1 (configuration not stated),inconclusive: -9.2%,–
COc1cccc(-c2cc(C(=O)N3CCN(C(=O)c4ccco4)CC3)[nH]n2)c1,inconclusive: -15.9%,–
CN(CC(=O)Nc1ccc(F)cc1)C(=O)c1cc2c(s1)CCCCC2,–,"inconclusive: 14.6 µM [falling, partial curve, poor fit]"
Cc1oc(-c2ccc(F)cc2)nc1CN(Cc1ccccn1)CC1CCCO1 (configuration not stated),inconclusive: 7.01%,–
Cc1nn(-c2ccccc2)c(Cl)c1C(=O)NCC1CCCO1 (configuration not stated),inconclusive: 3.51%,–
Cc1c(/C=C2\SC(=O)N(CC(=O)Nc3ccc4c(c3)OCO4)C2=O)c2ccccc2n1C,inactive: 13.3%,–

SMILES,"activity change, negative = inhibition",Potency
CN(C)c1ccc(-c2nc3n(n2)C(c2cccnc2)C2=C(CC(C)(C)CC2=O)N3)cc1 (configuration not stated),inconclusive: -5.86%,–
COc1ccccc1N1CCN(CCCCNC(=O)c2ccc3ccccc3c2)CC1,inactive: -10.6%,–
COC(=O)c1ccc(OCC2c3cc(OC)c(OC)cc3CCN2C(=O)c2ccccc2C)cc1 (configuration not stated),inactive: -2.09%,–
O=S(=O)(c1ccc(SCc2ccc(Cl)cc2)nc1)N1CCCC1,inactive: 2.75%,–
COC(=O)Nc1nc(-c2ccccc2)c(C(=O)c2ccccc2)s1,inconclusive: 5.69%,–
CCn1c(SCC(=O)c2ccc(Cl)cc2)nnc1-c1cccs1,inconclusive: -5.5%,–
CCCS(=O)(=O)N1CCN(Cc2ccc3c(c2)c2ccccc2n3CC)CC1,inactive: -8.46%,–
COc1ccc(NC(=O)c2ccc(-n3nc(C)c[n+]3[O-])cc2)cc1,inconclusive: 12.5%,–
O=c1oc2ccccc2c(Nc2ccccc2)c1[N+](=O)[O-],–,"inconclusive: 0.00517 µM [falling, full curve, poor fit]"
CC(C)NC(=O)c1cc2n(n1)C(C(F)(F)F)CC(c1ccco1)N2 (configuration not stated),inconclusive: 11.5%,–
O=C(CCN1C(=O)/C(=C\c2ccccc2F)SC1=S)N1CCCCC1,inactive: 0.872%,–
CCOCCCn1c(C)nc2c(c1=O)c1nc3ccccc3nc1n2CCC1=CCCCC1,inconclusive: 1.11%,–
O=C(C(Cc1ccccc1)n1cccc1)N1CCCCCC1 (configuration not stated),inconclusive: -23%,–
CC(C)CNC(=O)COC(=O)CCC(=O)c1ccc(F)cc1,inconclusive: 11.6%,–
O=C(/C=C/c1ccco1)Nc1ccc2nc3n(c(=O)c2c1)CCCC3,inactive: 0.334%,–
Cc1ccc(NC(=S)N2CCC(NC(=O)c3ccc(C)cc3)CC2)cc1,inconclusive: -0.505%,–
CCn1c(C)cc(/C=C2\NC(=O)N(Cc3ccccc3)C2=O)c1C,–,"inconclusive: 1.84 µM [falling, partial curve, poor fit]"
COCCSc1nc2sc3c(c2c(=O)n1-c1ccccc1)CCN(C)C3,inconclusive: -2.33%,–
COc1ccc(-c2cc(C(=O)Nc3c(C)nn(Cc4ccccc4Cl)c3C)no2)cc1,inconclusive: 9.59%,–
CCN(CC)CCCNC(=S)N1CCN(c2nc(-c3ccccc3)cs2)CC1,inconclusive: -17.8%,–
C/C(CC(=O)Nc1ccc(N(C)C)cc1)=N\NC(=O)c1ccccc1O,–,"inconclusive: 5.62 µM [falling, partial curve]"

SMILES,"activity change, negative = inhibition",Potency
CCOC(=O)c1c(-c2ccccc2)csc1NC(=O)CSc1nnc(C)s1,inactive: -0.915%,–
COc1ccc(S(=O)(=O)N2CCN=C2SCc2cccnc2)cc1,inconclusive: 4.57%,–
CCc1nnc(NC(=O)c2ccc3ccccc3n2)s1,–,"inconclusive: 5.62 µM [cytotoxic, single point]"
Cc1ccc(NC(=O)c2ccc(S(=O)(=O)N3CCC(C)CC3)cc2)cc1,inconclusive: 13.4%,–
CN(C)C(CNC(=O)c1ccc(S(=O)(=O)Nc2ccccc2F)cc1)c1ccco1 (configuration not stated),inactive: 0.853%,–
CCOC(=O)CC(=O)CSc1nc(N)c(C#N)c(-c2ccc(Cl)cc2)c1C#N,inconclusive: 4.1%,–
Cc1onc(-c2ccccc2Cl)c1C(=O)N(Cc1ccccc1)C(C)C,inconclusive: 0.443%,–
O=C(Oc1ccccc1C(=S)N1CCOCC1)c1ccc([N+](=O)[O-])cc1[N+](=O)[O-],inconclusive: 0.651%,–
O=C(OCc1c(-c2ccccc2)ncc2ccccc12)c1ccc(Cl)cc1Cl,–,"inconclusive: 18.4 µM [falling, partial curve]"
COc1ccc(OC)c(NC(=O)C2CCN(S(=O)(=O)c3c(C)noc3C)CC2)c1,inconclusive: 2.1%,–
O=C(NCCc1nc2ccccc2[nH]1)/C(=C/c1ccc2c(c1)OCO2)NC(=O)c1ccc(Cl)cc1Cl,inconclusive: -16%,–
O=c1c(NCCc2ccc(Cl)cc2)c(-c2ccccc2)c1=O,inconclusive: 2.55%,–
CCOC(=O)C1=C(COC(=O)c2cccnc2SC)NC(=O)NC1C (configuration not stated),inconclusive: -3.93%,–
COCCNC(=S)N(CCc1c(C)[nH]c2ccc(F)cc12)Cc1ccc(C)cc1,–,"inconclusive: 28.2 µM [falling, partial curve, poor fit]"
CCc1sc(C(=O)Nc2ncccc2O)cc1C,inconclusive: 1.08%,–
CN(C)c1ccc(NC(=O)c2cnsn2)cc1,–,"inconclusive: 31.6 µM [rising, single point]"
O=C(Nc1c2c(nn1-c1ccc(F)cc1)CS(=O)(=O)C2)C12CC3CC(CC(C3)C1)C2,inconclusive: 0.0604%,–
Cc1ccc(C2CC2C(=O)NNC(=S)Nc2cccc(C)c2)cc1 (configuration not stated),–,"inconclusive: 6.51 µM [falling, partial curve, poor fit]"
O=C(Nc1nnc(C2=COCCO2)o1)c1cccc(Br)c1,–,"inconclusive: 35.5 µM [falling, single point]"

# Exported with tabs: entries from further up
SMILES	activity change, negative = inhibition	Potency
CCN(CC)CCCNC(=S)N1CCN(c2nc(-c3ccccc3)cs2)CC1	inconclusive: -17.8%	–
C/C(CC(=O)Nc1ccc(N(C)C)cc1)=N\NC(=O)c1ccccc1O	–	inconclusive: 5.62 µM [falling, partial curve]
CCOC(=O)c1c(-c2ccccc2)csc1NC(=O)CSc1nnc(C)s1	inactive: -0.915%	–
COc1ccc(S(=O)(=O)N2CCN=C2SCc2cccnc2)cc1	inconclusive: 4.57%	–
